In publication PMC7819943, “Rice protein-binding microarrays: a tool to detect cis-acting elements near promoter regions in rice”:
Some of the results follow.

target: T1, OsSMF1 (Oryza sativa, UniProt Q6ZLB0 1-436); experiment: protein-binding microarray (RPBM); PBS, 2% BSA, 51.3 ng/ul salmon testes DNA, 50 uM zinc acetate, 200 nM TF, 25 C, 1 h; high values mean tight binding; conditions: protein: recombinant; tags: N-terminal polyhistidine and DsRed monomer fusion (pET32a); chain copies: 2; label: CyDye5-dUTP incorporated in the synthesized complementary strand; 3' TTTTT single-stranded linker to array surface; dsDNA, one strand shown
T1 sequence: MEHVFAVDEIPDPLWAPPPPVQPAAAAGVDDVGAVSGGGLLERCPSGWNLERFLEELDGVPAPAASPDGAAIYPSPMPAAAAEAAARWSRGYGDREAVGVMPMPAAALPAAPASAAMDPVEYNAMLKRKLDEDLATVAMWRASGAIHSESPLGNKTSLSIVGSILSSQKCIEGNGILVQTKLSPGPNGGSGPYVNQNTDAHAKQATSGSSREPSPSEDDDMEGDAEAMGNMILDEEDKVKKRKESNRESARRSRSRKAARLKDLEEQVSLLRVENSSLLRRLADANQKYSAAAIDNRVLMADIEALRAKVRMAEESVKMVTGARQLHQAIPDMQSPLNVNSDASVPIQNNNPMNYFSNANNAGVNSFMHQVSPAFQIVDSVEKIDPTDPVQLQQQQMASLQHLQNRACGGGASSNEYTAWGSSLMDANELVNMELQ
Procedure, shortened: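 Transcription factors, each fused N-terminally to a polyhistidine tag and DsRed, were expressed in E. coli BL21-CodonPlus and purified on Ni–NTA. A custom Agilent array was made double-stranded by primer extension with Cy5-dUTP and blocked with 2% BSA. It was incubated with 200 nM protein in PBS, 2% BSA, salmon testes DNA and 50 µM zinc acetate at 25 °C for 1 h, then washed. The binding signal is per-feature fluorescence intensity (arbitrary units) read on an Axon 4000B scanner.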

Q: How did the binding signal turn out when “GGACGGTTTCGCTGATGTGGCGCCTACGTGGCATCCTAATCGGAGTCACCTAGTGCAG” was run?
A: 20300 fluorescence intensity (a.u.)

Q: How did the binding signal turn out when “GAGGAGAGAGAAGAGAAGAGGTCAAGAAGAGAAGCAAGAGCGGAGTCACCTAGTGCAG” was run?
A: 24200 fluorescence intensity (a.u.)

Q: For “TAATCATGCGGTTTTGCGGTCATAAGCATGACGAAATCTTCGGAGTCACCTAGTGCAG”, which binding signal is on record?
A: 3700 fluorescence intensity (a.u.)

Q: “AATACCTAGTCCCATCTGTCATACACACACTGTGTCTTGGCGGAGTCACCTAGTGCAG” was tested. Which binding signal did it give?
A: 3900 fluorescence intensity (a.u.)

Q: With “TCGTGTCCTCTCTTCAGCCACACACGCGCCCACCTCGCCGCGGAGTCACCTAGTGCAG” as the sequence, how does the binding signal read?
A: 3330 fluorescence intensity (a.u.)

Q: With “TTGTGATGGTGGAGCTGAGGAGCCTTCTCTCCAGCATTGTCGGAGTCACCTAGTGCAG” as the sequence, how does the binding signal read?
A: 3250 fluorescence intensity (a.u.)

Q: With “GTAACTAAAGATACAAAATTATTAGTGTAACCGGAGGCATCGGAGTCACCTAGTGCAG” as the sequence, how does the binding signal read?
A: 34600 fluorescence intensity (a.u.)

Q: For “GATCAATGGGCCAACGTTGCTGGACTAAGCAAGCCGAGGCCGGAGTCACCTAGTGCAG”, which binding signal is on record?
A: 27100 fluorescence intensity (a.u.)

Q: How did the binding signal turn out when “GCGATCTAGTCCGCGGCCACGTCGGGCCAAACGGGCGGCCCGGAGTCACCTAGTGCAG” was run?
A: 6560 fluorescence intensity (a.u.)

Q: For “CTTCTCGCCGGAGTCCACGTGTCGGCCTCGCCGGCACCGGCGGAGTCACCTAGTGCAG”, which binding signal is on record?
A: 9920 fluorescence intensity (a.u.)

Q: Which binding signal does the source give for “TAGTTTTAGTTTTATAGTTATCTTTTGCATCGACTTTTAACGGAGTCACCTAGTGCAG” here?
A: 4130 fluorescence intensity (a.u.)

Q: “GCCATTGATGACAAAGACAACCTGGAAGATTACTGTTGCACGGAGTCACCTAGTGCAG” was tested. Which binding signal did it give?
A: 64300 fluorescence intensity (a.u.)

Q: For “GGCCGGCGCCGGCCCACGTGCCACTAATGGACTCGTGCCGCGGAGTCACCTAGTGCAG”, which binding signal is on record?
A: 4470 fluorescence intensity (a.u.)

Q: For “AGATTTGCGTGGTGTGACATTCCTGACAAACCAGGCATTACGGAGTCACCTAGTGCAG”, which binding signal is on record?
A: 3250 fluorescence intensity (a.u.)

Q: How did the binding signal turn out when “TTTCTTTTGCTTCTCTTGAAGTACGTCACGTTTCCACTTGCGGAGTCACCTAGTGCAG” was run?
A: 5460 fluorescence intensity (a.u.)

Q: How did the binding signal turn out when “AGAACAGCAGCCACGGCAAGCCCTTCGATGAACAAACACCCGGAGTCACCTAGTGCAG” was run?
A: 26000 fluorescence intensity (a.u.)

Q: “TATTATACGTATCAATTCACACGTTATCTTTATTCAGGCCCGGAGTCACCTAGTGCAG” was tested. Which binding signal did it give?
A: 4190 fluorescence intensity (a.u.)

Q: Which binding signal does the source give for “AACCCAGCCCCTAGATTGTGTCATCAGTCATCACCCACATCGGAGTCACCTAGTGCAG” here?
A: 6470 fluorescence intensity (a.u.)

Q: How did the binding signal turn out when “ATTTATTATTTGAACTGATGGCTGTCAGGTGCTTCTCTTTCGGAGTCACCTAGTGCAG” was run?
A: 3590 fluorescence intensity (a.u.)

Q: “CTCACATAAACAACGAATCTAGATGACTCAGATTCTTATCCGGAGTCACCTAGTGCAG” was tested. Which binding signal did it give?
A: 4730 fluorescence intensity (a.u.)

Q: With “CCCTCCCTCGCTTGACTTCTCTCTCCGCGTCACTTCTCTTCGGAGTCACCTAGTGCAG” as the sequence, how does the binding signal read?
A: 5500 fluorescence intensity (a.u.)

Q: How did the binding signal turn out when “TGATGAACCCCTGCCACTGCTAGTGGATTCTTGCCGTTTCCGGAGTCACCTAGTGCAG” was run?
A: 18100 fluorescence intensity (a.u.)

Q: How did the binding signal turn out when “GTGTGGTGTTACGTGCGTAGTGGTGTGTATATATATCTGTCGGAGTCACCTAGTGCAG” was run?
A: 4740 fluorescence intensity (a.u.)
